Laboratory results from article PMC3281992.
Results are given in words; binding and its absence hold for the method and conditions named. Binding seen in cells or lysates may run through a third protein. Here binding means that the protein was enriched with, or labelled near, the bait; the list need not be complete. For some of these results: A no says only that the protein was not detected with the bait. Sequences can lack the tags named with a protein.

Amino acid sequences for entries named in this document (tags omitted).
UniProt Q8VDS3: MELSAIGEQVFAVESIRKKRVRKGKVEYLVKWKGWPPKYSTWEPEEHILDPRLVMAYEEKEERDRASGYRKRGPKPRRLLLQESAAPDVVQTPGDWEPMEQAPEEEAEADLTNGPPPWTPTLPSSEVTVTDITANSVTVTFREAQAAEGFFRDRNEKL
UniProt Q9CQJ4: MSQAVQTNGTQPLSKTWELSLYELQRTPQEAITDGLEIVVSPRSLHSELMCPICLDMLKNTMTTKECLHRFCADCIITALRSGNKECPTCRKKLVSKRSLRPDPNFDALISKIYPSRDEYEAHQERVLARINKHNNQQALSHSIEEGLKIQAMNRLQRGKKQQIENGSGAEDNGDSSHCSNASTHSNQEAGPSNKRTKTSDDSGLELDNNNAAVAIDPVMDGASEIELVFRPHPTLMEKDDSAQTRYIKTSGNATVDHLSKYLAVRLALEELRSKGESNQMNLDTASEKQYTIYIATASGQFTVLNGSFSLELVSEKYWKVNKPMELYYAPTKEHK

T1: RYBP-Flag (mouse) (UniProt Q8CCI5)
T1 sequence: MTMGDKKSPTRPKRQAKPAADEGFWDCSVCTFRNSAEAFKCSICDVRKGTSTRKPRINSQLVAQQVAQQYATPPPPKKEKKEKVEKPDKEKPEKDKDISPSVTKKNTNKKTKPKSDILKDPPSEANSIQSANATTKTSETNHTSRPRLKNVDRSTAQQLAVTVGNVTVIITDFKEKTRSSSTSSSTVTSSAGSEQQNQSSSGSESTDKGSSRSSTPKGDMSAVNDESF

T2: MEL-18-Flag (mouse) (UniProt P23798)
T2 sequence: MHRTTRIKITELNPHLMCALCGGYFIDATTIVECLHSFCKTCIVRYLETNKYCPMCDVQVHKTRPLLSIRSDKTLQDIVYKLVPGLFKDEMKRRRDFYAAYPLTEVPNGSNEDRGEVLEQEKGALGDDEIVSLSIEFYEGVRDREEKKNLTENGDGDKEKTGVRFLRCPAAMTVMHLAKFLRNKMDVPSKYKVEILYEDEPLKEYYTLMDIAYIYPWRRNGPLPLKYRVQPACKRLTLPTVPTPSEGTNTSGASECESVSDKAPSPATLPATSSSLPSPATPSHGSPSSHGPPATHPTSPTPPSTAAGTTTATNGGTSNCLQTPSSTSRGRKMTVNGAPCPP

B1: CBX4 (protein, UniProt O55187 1-551)
chain: MELPAVGEHVFAVESIEKKRIRKGRVEYLVKWRGWSPKYNTWEPEENILDPRLLIAFQNRERQEQLMGYRKRGPKPKPLVVQVPTFARRSNVLTGLQDSSADNRAKLELGTQGKGQGHQYELNSKKHHQYQPHSKERSGKPPPPGKSGKYYYQLNSKKHHPYQPDPKMYDLQYQGGHKEAPSPTCPDLGTKSHPPDKWAHGAAAKGYLGAVKPLGGGAGAPGKGSEKGPPNGMTPAPKEAVTGNGIGGKMKIVKNKNKNGRIVIVMSKYMENGMQAVKIKSGEAAEGEARSPSHKKRAAEERHPQGDRTFKKAAGASEEKKAEVPCKRREEEALVSGDAQPQDLGSRKLSPTKEAFGEQPLQLTTKPDLLAWDPARSSHPPAHHHHHHHHHHHHHTVGLNLSHARKRCLSETHGEREPCKKRLTARSISTPTCLGGSPVSEHPANVSPTAASLPQPEVILLDSDLDEPIDLRCVKMRSDAGEPPSTLQVKPEAPAVAAVVAPAPASEKPPAEAQEEPVEPLSEFKPFFGNIIITDVTANCLTVTFKEYVTV
B2: CBX8 (protein, UniProt Q9QXV1 1-362)
chain: MELSAVGERVFAAEALLKRRIRKGRMEYLVKWKGWSQKYSTWEPEENILDARLLAAFEEREREMELYGPKKRGPKPKTFLLKAQAKAKAKTYEFRSDSTRGIRIPYPGRSPQDLASTSRAREGLRNTGLPPPGSSTSTCRADPPRDRDRERDRGTSRVDDKPSSPGDSSKKRGPKPRKEPLDPSQRPLGEPSAGLGEYLKGRKLDETSSGTGKFPAGHSVIQLARRQDSDLVQYGVTSPSSAEASSKLAVDTFPARVIKHRAAFLEAKGQGALDPGGARVRHSSGTPASVGSLYRDMGAQGGRPSLIARIPVARILGDPEEESWSPSLTNLEKVVVTDVTSNFLTVTIKESNTDQGFFKEKR
B3: MPH1 (protein, UniProt Q64028 1-1010)
chain: METESEQNSSSTNGSSSSGASSRPQIAQMSLYERQAVQALQALQRQPNAAQYFHQFMLQQQLSNAQLHSLAAVQQATIAASRQASSPNSSTAQQQTATTQASMNLATTSAAQLISRSQSVSSPSATTLTQSVLLGNTTSPPLNQSQAQMYLRPQLGNLLQVNRTLGRNVPLASQLILMPNGAVAAVQQEVPPAQSPGVHADADQVQNLAVRNQQASAQGPQMPGSTQKAIPPGASPVSGLSQTSSQALAVAQASSGASGQSLNLSQAGGGSGNSLPGSMGPGGGGQAPGGLGQLPSSGLTGGSCPRKGTGVVQPLPAAQTVTVSQGSQTEAESAAAKKAEADGSGQQSVGMNLTRTATPAPSQTLISSATYTQIQPHSLIQQQQQIHLQQKQVVIQQQIAIHHQQQFQHRQSQLLHTATHLQLAQQQQQQQQQQQQQQQQQQQQQQGTTLTAPQPPQVPPTQQVPPSQSQQQAQTLVVQPMLQSSPLTLPPEPTSKPPIPIQSKPPVAPIKPPQLGAAKMSATQQPPPHIPVQVVGTRQPGSAQAQALGLAQLAAAVPTPRGITGAVQPGQAHLASSPPSSQAAPGALQECPPALAAGMTLAPVQGTAHVVKGGPTASSPVVAQVPAAFYMQSVHLPGKAQTLAVKRKAESEEERDDLSALASVLPTKASPAAESPKVIEEKNSLGEKAEPVASLNANPPNSDLVALAPTPSAPPPTLALVSRQMGDSKPPQAIVKPQILTHIIEGFVIQEGAEPFPVGCSQFLKETKKPLQAGLPTGLNESQPSGPLGGDSPSVELEKKANLLKCEYCGKYAPAEQFRGSKRFCSMTCAKRYNVSCSHQFRLKRKKMKEFQEASYARVRRRGPRRSSSDIARAKIQGKRHRGQEDSSRGSDNSSYDEALSPTSPGPLSVRAGHGERDLGNTITTPSTPELQGINPVFLSSNPSQWSVEEVYEFIASLQGCQEIAEEFRSQEIDGQALLLLKEEHLMSAMNIKLGPALKICAKINVLKET
B4: RYBP (protein, UniProt Q8CCI5 1-228)
chain: T1 sequence
B5: MPH2 (protein, UniProt Q9QWH1 1-850)
chain: MENELPVPHTSNRASVTTNTSGTNSSSGCISSSGGGGGSGGRPTAPQISVYSGIPDRQTVQVIQQALHRQPSTAAQYLQQMYAAQQQHLMLQTAALQQQHLSSAQLQSLAAVQQASLVANRQGSTPGSSVSSQAPAQSSSLNLAASPAAAQLINRAQSVNSAAASGLAQQAVLLGNTSSPALTASQAQMYLRAQMLIFTPTATVATVQPELCTGSPARPPTPAQVQNLTLRTQQTPAAAASGPPPTQPVLPSLALKPTPSSSQPLPAPPQGRTMAQGSPAGAKPSGTDNAPETLKAGDGNCNMEGRPGPGRAVPAVATHPLIAPAYAHLQSHQLLPQPPAKHPQPQFVAQQQPQPPRPAPQVQSQPQLASVSPSLALQSSPEDHALPLGSVTQALPLQCSTTHVHKPGNSQQCHLPTLDTGSQNGHPEGGSHPPQRRFQHTSAVILQVQPASPVTPQQCAPDDWKEVVPAEKSVPVARPGPSPHQQAIIPAIPGGLPGPKSPNIQQCPAHETGQGIVHALTDLSSPGMTSGNGNSASSIAGTAPQNGENKPPQAIVKPQILTHVIEGFVIQEGAEPFPVGRSSLLVGNLKKKYAQGFLPEKPPQQDHTTTTDSEMEEPYLQESKEEGTPLKLKCELCGRVDFAYKFKRSKRFCSMACAKRYNVGCTKRVGLFHSDRSKLQKAGTTTHNRRRASKASLPTLTKDTKKQPSGTVPLSVTAALQLAHSQEDSSRCSDNSSYEEPLSPISASSSTSRRRQGQRDLDLPDMHMRDLVGVGHHFLPSEPTKWNVEDVYEFIRSLPGCQEIAEEFRAQEIDGQALLLLKEDHLMSAMNIKLGPALKIYARISMLKDS
B6: MEL-18 (protein, UniProt P23798 1-342)
chain: T2 sequence
B7: NSPC1 (protein, UniProt Q8R023 1-259)
chain: MASPQGGQIAIAMRLRNQLQSVYKMDPLRNEEEVRVKIKDLNEHIVCCLCAGYFVDATTITECLHTFCKSCIVKYLQTSKYCPMCNIKIHETQPLLNLKLDRVMQDIVYKLVPGLQDSEEKRIREFYQSRGLDRVSQPSGEEPALSNLGLPFSSFDHSKAHYYRYDEQLSLCLERLSSGKDKNKNVLQNKYVRCSVRAEVRHLRRVLCHRLMLNPQHVQLLFDNEVLPDHMTMKQLWLSRWFGKPSPLLLQYSVKEKRR
B8: MBLR (protein, UniProt Q99NA9 1-353)
chain: MDEAETDATENKRASEAKRASAMPPPPPPPPPISPPALIPAPAAGEEGPASLGQAGAAGCSRSRPPALEPERSLGRLRGRFEDYDEELEEEEEMEEEEEEEEEMSHFSLRLESGRADSEDEEERLINLVELTPYILCSICKGYLIDATTITECLHTFCKSCIVRHFYYSNRCPKCNIVVHQTQPLYNIRLDRQLQDIVYKLVINLEEREKKQMHDFYKERGLEVPKPAAPQPVPSSKGKTKKVLESVFRIPPELDMSLLLEFIGANEDTGHFKPLEKKFVRVSGEATIGHVEKFLRRKMGLDPACQVDIICGDHLLERYQTLREIRRAIGDTAMQDGLLVLHYGLVVSPLKIT
B9: MPH3 (protein, UniProt Q8CHP6 1-981)
chain: MDSEPSSGTSVSTTASSTTTTTITTSSSRMQQPQISVYSGSDRHAVQVIQQALHRPPSSAAQYLQQMYAAQQQHLMLHTAALQQQHLSSSQLQSLAAVQASLSSGRPSTSPTGSVTQQSSMSQTSILSASPAPAQLMNRSQTSSSTSGSITQQTMLLGSTSPTLTASQAQMYLRAQMLIFTPATTVAAVQSDIPVVSSSPSPSCQSAAAQVQNLTLRSQKLGVLSSSQNGSPKSAGQTQSLTICHNKTTVTSSKISQRDPSPESKKGGSPGLESRSTAVTRTSSIHQLIAPASYSPIQPHSLIKHQQIPLHSPPPKVSHHQLLLQQQQQQIQPITLQSPSQDPPPSQHCIPLPNHGLSPAPSNAQPQHCSPVQSHPPPLTVSPNQAQSAQQSVVVSPPPPHSPSQSPTIIIHPQALIQPHPLVSSALQTGPNLQQAAADQVQSTAQLNLPSHLPLPASPVVHIGPVQQSALVSPGQQMVSPTSHQQYSALQSSPIPIATPPQMSASPPAQLPPLPLQSMQSLQVQPEILSQGQVLVQNALVSEEELPAAEALVQLPFQTLPPPQTVAVNLQVQPPAPVDPPVVYQVEDVCEEEMPEESDECARMDRTPPPPTLSPAAVTVGRGEDLTSEHPLLEQVELPAVASVSASVIKSPSDPTHASAPAPPLLIPAASTRSSSTSLASSTPSLENKPPQAIVKPQILTHVIEGFVIQEGLEPFPVSRSSLLIEQPVKKRPLLDNQVVNSVCVQPELQNNTKHADNSSDTEIEDMMAEETLEEMDSELLKCEFCGKMGYPNEFLRSKRFCTMSCAKRYNVSCSKKFALSRWNRKPDNQSLGHRGRRPSGPEGAAREHILRQLPITYPSAEEDVASHEDPVPSAMTTRLRRQSERERERELRDVRIRKMPENSDLLPVAQTEPSIWTVDDVWAFIHSLPGCQDVADEFRAQEIDGQALLLLKEDHLMSAMNMKLGPALKICARINSLKDS

Experiments:
[1] = biological target: T1, RYBP-Flag (mouse); assay: affinity purification with mass spectrometry; Flag purification of MEL-18-Flag, RYBP-Flag or CBX7-Flag from PGK12.1 mESC nuclear extract; gel bands or lanes analysed by LC-MS/MS
[2] = biological target: T2, MEL-18-Flag (mouse); assay: affinity purification with mass spectrometry + co-IP; Flag purification of MEL-18-Flag from NSC nuclear extract, LC-MS/MS and western blot
[3] = biological target: T2, MEL-18-Flag (mouse); assay: affinity purification with mass spectrometry; Flag purification of MEL-18-Flag, RYBP-Flag or CBX7-Flag from PGK12.1 mESC nuclear extract; gel bands or lanes analysed by LC-MS/MS

Molecule | binding [1] | binding [2] | binding [3]
CBX7 (from UniProt Q8VDS3 1-158) | no binding |  | 
RING1B (from UniProt Q9CQJ4 1-336) | binds | binds | binds
B1 |  | binds | 
B2 |  | binds | binds
B3 |  | binds | binds
B4 |  | binds | binds
B5 |  |  | binds
B6 | binds |  | 
B7 | binds |  | 
B8 | binds |  | 
B9 |  |  | binds
